Reference: patent publication US7910739B2, “Acetylcholinesterase dual inhibitors” (priority 2003, dated 2011)

Chains of the proteins cited; added tags and fusions are not shown. Residues count along the entry.
UniProt P23795, 31-614 isoform 2 limits assumed: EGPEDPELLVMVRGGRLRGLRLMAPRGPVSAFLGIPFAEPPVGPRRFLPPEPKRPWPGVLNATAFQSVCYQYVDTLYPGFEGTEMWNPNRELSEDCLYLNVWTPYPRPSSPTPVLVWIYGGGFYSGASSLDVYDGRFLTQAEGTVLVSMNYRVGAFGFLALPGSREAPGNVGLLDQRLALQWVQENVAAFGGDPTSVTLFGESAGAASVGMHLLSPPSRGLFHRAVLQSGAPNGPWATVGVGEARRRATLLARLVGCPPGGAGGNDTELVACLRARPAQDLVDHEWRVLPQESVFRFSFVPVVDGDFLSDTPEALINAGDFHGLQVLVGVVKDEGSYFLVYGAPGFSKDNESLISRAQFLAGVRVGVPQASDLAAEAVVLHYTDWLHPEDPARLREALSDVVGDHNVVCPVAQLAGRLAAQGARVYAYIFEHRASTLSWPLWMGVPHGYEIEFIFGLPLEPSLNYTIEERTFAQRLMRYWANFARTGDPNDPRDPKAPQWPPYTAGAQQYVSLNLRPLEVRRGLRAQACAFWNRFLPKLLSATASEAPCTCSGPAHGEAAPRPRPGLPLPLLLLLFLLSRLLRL

Experiments:
[1] = tested on: human neuroblastoma cell line SH-SY5Y; experiment: Toxicity measurement (LDH release); type: cell-based; details: 24 hours exposure
Experimental: The cytotoxicity effect of the molecules was tested in the human neuroblastoma cell line SH-SY5Y. These cells were cultured in 96-well plates in DULBECCO'S MOD EAGLE medium, supplemented with 10% fetal bovine serum and 1% penicillin/streptomycin, and grown in a 5% CO2 humidified incubator at 37° C.
The cells were plated at 10^4 cells for each well, at least, 48 hours before the toxicity measure. Cells were exposed for 24 hours to the compounds at different concentrations (from 10^−5 to 10^−9), quantitative assessment of cell death was made by measurement of the intracellular enzyme lactate dehydrogenase (LDH) (citotoxicity detection kit, Roche). The quantity of LDH was evaluated in a microplate reader Anthos 2010, at 492 and 620 nm. Controls were taken as 100% viability.

AChE peripheral site = AChE peripheral site (Bos taurus, UniProt P23795); experiment: Propidium competition (fluorescence); type: binding; details: 10 μM AchE, 20 μM propidium iodide, pH 8.0

## O=C(/C=C/c1c[nH]c2ccccc12)NCCCCCCNc1c2c(nc3cc(Cl)ccc13)CCCC2
[1]
  Toxicity: >10 µM
AChE peripheral site
  Propidium competition: 10 µM

The structures given here were assigned with low confidence; some may be wrong.
